{"sequences": {"note": "Sequences of proteins named here, by UniProt entry; tags and fusion partners are left off. Residues count along the entry.", "UniProt P05928, residues 1-78": "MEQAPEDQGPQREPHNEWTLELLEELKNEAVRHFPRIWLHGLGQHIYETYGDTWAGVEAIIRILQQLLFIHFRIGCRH"}, "source": "paper PMC2932712", "about": "“Formation of Mobile Chromatin-Associated Nuclear Foci Containing HIV-1 Vpr and VPRBP Is Critical for the Induction of G2 Cell Cycle Arrest” (PLoS Pathogens, 2010)", "key": {"[1]": {"target": "HA-tagged HIV-1 Vpr (1-78) (HIV-1) (UniProt P05928)", "assay": "co-IP"}, "[2]": {"target": "HA-tagged HIV-1 Vpr (1-78) (HIV-1) (UniProt P05928)", "assay": "condition: only in the chromatin-bound fraction released by micrococcal nuclease; co-IP; anti-HA agarose beads, 2 h at 4C, on the chromatin-bound fraction released by micrococcal nuclease from Triton-insoluble material of transfected HeLa cells; with or without 25 ug/ml ethidium bromide"}}, "note": "Results are given in words; binding and its absence hold for the method and conditions named. In cells and extracts the contact can be indirect. Some binding calls cover weakened binding; strength is not graded here."}
{"substance": "VPRBP (Vpr-binding protein), endogenous in HeLa (from UniProt Q9Y4B6-1 1-1507)", "values": [{"measurement": "binding", "setting": "[1]", "value": "binds"}, {"measurement": "binding", "setting": "[2]", "value": "no binding"}]}
